These results are taken from article PMC9340482.

No constants are given. Whether binding was seen depends on the method and setting. Binding seen in cells or lysates may run through a third protein. Some results given as binding are weak or reduced against the parent protein; the word gives no strength. Where a sequence is shown, tags or fusion partners need not be part of it.

Experiment [1] has as its target T1, Mad1‐GFP (Mad1 fused to ymEGFP), expressed in S. pombe (S. pombe) (UniProt P87169).
T1 sequence: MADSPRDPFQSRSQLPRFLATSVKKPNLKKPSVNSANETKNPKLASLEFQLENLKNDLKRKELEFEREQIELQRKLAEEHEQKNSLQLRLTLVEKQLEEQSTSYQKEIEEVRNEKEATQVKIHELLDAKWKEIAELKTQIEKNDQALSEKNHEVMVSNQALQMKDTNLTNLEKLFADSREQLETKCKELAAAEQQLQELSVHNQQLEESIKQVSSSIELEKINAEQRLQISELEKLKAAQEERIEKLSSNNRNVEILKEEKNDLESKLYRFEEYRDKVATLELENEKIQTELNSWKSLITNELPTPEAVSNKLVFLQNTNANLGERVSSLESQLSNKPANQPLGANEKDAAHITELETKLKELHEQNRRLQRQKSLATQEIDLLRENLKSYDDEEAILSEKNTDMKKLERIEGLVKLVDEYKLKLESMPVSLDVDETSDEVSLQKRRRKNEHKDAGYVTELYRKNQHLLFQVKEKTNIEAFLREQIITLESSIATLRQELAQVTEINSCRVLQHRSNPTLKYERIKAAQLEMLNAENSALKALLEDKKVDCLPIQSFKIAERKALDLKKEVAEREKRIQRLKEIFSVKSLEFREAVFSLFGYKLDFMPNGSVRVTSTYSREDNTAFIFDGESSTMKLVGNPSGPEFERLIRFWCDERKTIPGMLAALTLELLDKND
Briefly: co-IP; anti-GFP antibodies covalently coupled to Protein G Dynabeads; extracts of S. pombe cells expressing two forms of Mad1 (haploid: Mad1-GFP and untagged Mad1; diploid: Mad1-GFP and Mad1-Strep); 10 min at 4°C; lysis buffer 20 mM Tris pH 7.5, 150 mM NaCl, 5% glycerol, 0.1% NP-40; blot with anti-Mad1.

In experiment [2] the target is T2, Mad1‐flag‐His, in vitro translated (S. pombe) (UniProt P87169).
T2 sequence (chain, 35S-labeled Methionine and Cysteine): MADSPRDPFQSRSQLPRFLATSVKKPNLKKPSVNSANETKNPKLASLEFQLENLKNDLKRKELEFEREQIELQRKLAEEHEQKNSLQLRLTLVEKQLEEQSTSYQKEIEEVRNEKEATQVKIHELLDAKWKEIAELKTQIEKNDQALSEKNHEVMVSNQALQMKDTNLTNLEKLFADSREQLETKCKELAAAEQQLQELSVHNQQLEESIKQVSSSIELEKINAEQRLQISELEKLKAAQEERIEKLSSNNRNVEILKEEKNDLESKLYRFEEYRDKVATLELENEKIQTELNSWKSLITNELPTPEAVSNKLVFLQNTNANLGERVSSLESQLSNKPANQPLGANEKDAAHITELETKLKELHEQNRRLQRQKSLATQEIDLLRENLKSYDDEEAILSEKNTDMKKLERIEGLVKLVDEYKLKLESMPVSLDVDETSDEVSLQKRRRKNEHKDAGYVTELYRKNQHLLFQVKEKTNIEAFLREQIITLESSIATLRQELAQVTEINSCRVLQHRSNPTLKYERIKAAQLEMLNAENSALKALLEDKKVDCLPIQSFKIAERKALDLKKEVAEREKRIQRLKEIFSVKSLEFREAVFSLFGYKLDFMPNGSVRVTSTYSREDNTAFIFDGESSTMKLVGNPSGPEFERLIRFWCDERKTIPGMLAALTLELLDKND
Nature of the experiment: pull-down; His pull-down with Ni-NTA Dynabeads after co-translation of two forms of Mad1 in rabbit reticulocyte lysate with 35S label; 50 mM sodium-phosphate pH 8.0, 300 mM NaCl, 0.01% Tween-20; washes with 10-20 mM imidazole and 0.1% NP-40; autoradiograph.

The target of experiment [3] is T3, Mad1‐Strep, expressed in S. pombe (S. pombe) (UniProt P87169).
T3 sequence: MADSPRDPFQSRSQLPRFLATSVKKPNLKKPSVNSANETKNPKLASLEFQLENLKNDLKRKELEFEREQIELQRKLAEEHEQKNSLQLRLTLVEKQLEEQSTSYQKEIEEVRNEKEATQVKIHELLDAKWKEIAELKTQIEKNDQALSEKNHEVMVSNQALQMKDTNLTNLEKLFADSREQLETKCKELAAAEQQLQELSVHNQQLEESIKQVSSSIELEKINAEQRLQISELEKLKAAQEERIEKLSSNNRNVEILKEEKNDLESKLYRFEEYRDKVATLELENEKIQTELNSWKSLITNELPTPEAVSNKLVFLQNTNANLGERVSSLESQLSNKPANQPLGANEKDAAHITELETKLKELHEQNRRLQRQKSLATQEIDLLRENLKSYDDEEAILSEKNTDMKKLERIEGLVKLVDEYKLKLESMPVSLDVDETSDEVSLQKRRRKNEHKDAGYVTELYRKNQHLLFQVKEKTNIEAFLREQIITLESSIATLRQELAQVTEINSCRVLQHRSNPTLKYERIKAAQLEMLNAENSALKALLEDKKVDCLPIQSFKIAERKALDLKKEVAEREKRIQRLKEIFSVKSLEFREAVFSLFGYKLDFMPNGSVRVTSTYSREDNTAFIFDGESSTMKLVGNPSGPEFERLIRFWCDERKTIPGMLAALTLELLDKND
Nature of the experiment: pull-down; Strep pull-down with MagStrep type3 XT beads from extracts of diploid S. pombe cells expressing Mad1-GFP and Mad1-Strep; 45 min to 1 h at 4°C; washed with lysis buffer or 300 mM NaCl, 1% NP-40 wash buffer; blot with anti-Mad1.

The target of experiment [4] is T4, Mad1‐GFP, in vitro translated (S. pombe) (UniProt P87169).
T4 sequence (chain, 35S-labeled Methionine and Cysteine): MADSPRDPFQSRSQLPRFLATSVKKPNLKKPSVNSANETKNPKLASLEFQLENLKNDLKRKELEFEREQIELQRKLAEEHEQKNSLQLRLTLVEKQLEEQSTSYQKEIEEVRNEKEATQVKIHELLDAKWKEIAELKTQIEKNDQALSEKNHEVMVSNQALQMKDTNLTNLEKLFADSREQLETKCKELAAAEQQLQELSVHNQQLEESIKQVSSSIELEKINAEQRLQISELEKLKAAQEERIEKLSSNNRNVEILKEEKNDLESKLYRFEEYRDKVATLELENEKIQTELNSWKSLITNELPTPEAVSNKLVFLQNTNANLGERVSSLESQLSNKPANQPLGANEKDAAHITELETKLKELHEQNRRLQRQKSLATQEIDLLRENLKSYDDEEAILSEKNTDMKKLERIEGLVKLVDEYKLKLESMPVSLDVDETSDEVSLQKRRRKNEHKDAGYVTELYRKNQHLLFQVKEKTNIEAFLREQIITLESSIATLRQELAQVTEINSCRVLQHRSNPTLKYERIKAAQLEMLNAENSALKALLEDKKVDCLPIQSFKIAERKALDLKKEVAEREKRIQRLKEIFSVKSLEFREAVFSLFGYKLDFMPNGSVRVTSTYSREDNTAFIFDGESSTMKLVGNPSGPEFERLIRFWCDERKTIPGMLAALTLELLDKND
Nature of the experiment: co-IP; anti-GFP immunoprecipitation after co-translation of two forms of Mad1 in rabbit reticulocyte lysate with 35S label; 20 mM Tris pH 7.5, 150 mM NaCl, 0.1% NP-40; autoradiograph.

B1: Mad1‐Strep, expressed in S. pombe (protein, UniProt P87169 1-676)
chain: MADSPRDPFQSRSQLPRFLATSVKKPNLKKPSVNSANETKNPKLASLEFQLENLKNDLKRKELEFEREQIELQRKLAEEHEQKNSLQLRLTLVEKQLEEQSTSYQKEIEEVRNEKEATQVKIHELLDAKWKEIAELKTQIEKNDQALSEKNHEVMVSNQALQMKDTNLTNLEKLFADSREQLETKCKELAAAEQQLQELSVHNQQLEESIKQVSSSIELEKINAEQRLQISELEKLKAAQEERIEKLSSNNRNVEILKEEKNDLESKLYRFEEYRDKVATLELENEKIQTELNSWKSLITNELPTPEAVSNKLVFLQNTNANLGERVSSLESQLSNKPANQPLGANEKDAAHITELETKLKELHEQNRRLQRQKSLATQEIDLLRENLKSYDDEEAILSEKNTDMKKLERIEGLVKLVDEYKLKLESMPVSLDVDETSDEVSLQKRRRKNEHKDAGYVTELYRKNQHLLFQVKEKTNIEAFLREQIITLESSIATLRQELAQVTEINSCRVLQHRSNPTLKYERIKAAQLEMLNAENSALKALLEDKKVDCLPIQSFKIAERKALDLKKEVAEREKRIQRLKEIFSVKSLEFREAVFSLFGYKLDFMPNGSVRVTSTYSREDNTAFIFDGESSTMKLVGNPSGPEFERLIRFWCDERKTIPGMLAALTLELLDKND
Regarding B1, in experiment [1], the binding result is “binds weakly”.

B2: untagged Mad1, in vitro translated (protein, UniProt P87169 1-676)
chain: MADSPRDPFQSRSQLPRFLATSVKKPNLKKPSVNSANETKNPKLASLEFQLENLKNDLKRKELEFEREQIELQRKLAEEHEQKNSLQLRLTLVEKQLEEQSTSYQKEIEEVRNEKEATQVKIHELLDAKWKEIAELKTQIEKNDQALSEKNHEVMVSNQALQMKDTNLTNLEKLFADSREQLETKCKELAAAEQQLQELSVHNQQLEESIKQVSSSIELEKINAEQRLQISELEKLKAAQEERIEKLSSNNRNVEILKEEKNDLESKLYRFEEYRDKVATLELENEKIQTELNSWKSLITNELPTPEAVSNKLVFLQNTNANLGERVSSLESQLSNKPANQPLGANEKDAAHITELETKLKELHEQNRRLQRQKSLATQEIDLLRENLKSYDDEEAILSEKNTDMKKLERIEGLVKLVDEYKLKLESMPVSLDVDETSDEVSLQKRRRKNEHKDAGYVTELYRKNQHLLFQVKEKTNIEAFLREQIITLESSIATLRQELAQVTEINSCRVLQHRSNPTLKYERIKAAQLEMLNAENSALKALLEDKKVDCLPIQSFKIAERKALDLKKEVAEREKRIQRLKEIFSVKSLEFREAVFSLFGYKLDFMPNGSVRVTSTYSREDNTAFIFDGESSTMKLVGNPSGPEFERLIRFWCDERKTIPGMLAALTLELLDKND
modifications: 35S-labeled Methionine and Cysteine
For the molecule B2, the binding entry in experiment [2] was “binds weakly”.

B3: Mad1‐GFP (Mad1 fused to ymEGFP), expressed in S. pombe (protein, UniProt P87169 1-676)
chain: MADSPRDPFQSRSQLPRFLATSVKKPNLKKPSVNSANETKNPKLASLEFQLENLKNDLKRKELEFEREQIELQRKLAEEHEQKNSLQLRLTLVEKQLEEQSTSYQKEIEEVRNEKEATQVKIHELLDAKWKEIAELKTQIEKNDQALSEKNHEVMVSNQALQMKDTNLTNLEKLFADSREQLETKCKELAAAEQQLQELSVHNQQLEESIKQVSSSIELEKINAEQRLQISELEKLKAAQEERIEKLSSNNRNVEILKEEKNDLESKLYRFEEYRDKVATLELENEKIQTELNSWKSLITNELPTPEAVSNKLVFLQNTNANLGERVSSLESQLSNKPANQPLGANEKDAAHITELETKLKELHEQNRRLQRQKSLATQEIDLLRENLKSYDDEEAILSEKNTDMKKLERIEGLVKLVDEYKLKLESMPVSLDVDETSDEVSLQKRRRKNEHKDAGYVTELYRKNQHLLFQVKEKTNIEAFLREQIITLESSIATLRQELAQVTEINSCRVLQHRSNPTLKYERIKAAQLEMLNAENSALKALLEDKKVDCLPIQSFKIAERKALDLKKEVAEREKRIQRLKEIFSVKSLEFREAVFSLFGYKLDFMPNGSVRVTSTYSREDNTAFIFDGESSTMKLVGNPSGPEFERLIRFWCDERKTIPGMLAALTLELLDKND
On to B3, for which the binding entry in experiment [3] is “binds weakly”.

B4: Mad1‐flag‐His, in vitro translated (protein, UniProt P87169 1-676)
chain: MADSPRDPFQSRSQLPRFLATSVKKPNLKKPSVNSANETKNPKLASLEFQLENLKNDLKRKELEFEREQIELQRKLAEEHEQKNSLQLRLTLVEKQLEEQSTSYQKEIEEVRNEKEATQVKIHELLDAKWKEIAELKTQIEKNDQALSEKNHEVMVSNQALQMKDTNLTNLEKLFADSREQLETKCKELAAAEQQLQELSVHNQQLEESIKQVSSSIELEKINAEQRLQISELEKLKAAQEERIEKLSSNNRNVEILKEEKNDLESKLYRFEEYRDKVATLELENEKIQTELNSWKSLITNELPTPEAVSNKLVFLQNTNANLGERVSSLESQLSNKPANQPLGANEKDAAHITELETKLKELHEQNRRLQRQKSLATQEIDLLRENLKSYDDEEAILSEKNTDMKKLERIEGLVKLVDEYKLKLESMPVSLDVDETSDEVSLQKRRRKNEHKDAGYVTELYRKNQHLLFQVKEKTNIEAFLREQIITLESSIATLRQELAQVTEINSCRVLQHRSNPTLKYERIKAAQLEMLNAENSALKALLEDKKVDCLPIQSFKIAERKALDLKKEVAEREKRIQRLKEIFSVKSLEFREAVFSLFGYKLDFMPNGSVRVTSTYSREDNTAFIFDGESSTMKLVGNPSGPEFERLIRFWCDERKTIPGMLAALTLELLDKND
modifications: 35S-labeled Methionine and Cysteine
Consider B4, for which the binding entry in experiment [4] is recorded as “binds weakly”.

B5: Mad1‐GFP, in vitro translated (protein, UniProt P87169 1-676)
chain: MADSPRDPFQSRSQLPRFLATSVKKPNLKKPSVNSANETKNPKLASLEFQLENLKNDLKRKELEFEREQIELQRKLAEEHEQKNSLQLRLTLVEKQLEEQSTSYQKEIEEVRNEKEATQVKIHELLDAKWKEIAELKTQIEKNDQALSEKNHEVMVSNQALQMKDTNLTNLEKLFADSREQLETKCKELAAAEQQLQELSVHNQQLEESIKQVSSSIELEKINAEQRLQISELEKLKAAQEERIEKLSSNNRNVEILKEEKNDLESKLYRFEEYRDKVATLELENEKIQTELNSWKSLITNELPTPEAVSNKLVFLQNTNANLGERVSSLESQLSNKPANQPLGANEKDAAHITELETKLKELHEQNRRLQRQKSLATQEIDLLRENLKSYDDEEAILSEKNTDMKKLERIEGLVKLVDEYKLKLESMPVSLDVDETSDEVSLQKRRRKNEHKDAGYVTELYRKNQHLLFQVKEKTNIEAFLREQIITLESSIATLRQELAQVTEINSCRVLQHRSNPTLKYERIKAAQLEMLNAENSALKALLEDKKVDCLPIQSFKIAERKALDLKKEVAEREKRIQRLKEIFSVKSLEFREAVFSLFGYKLDFMPNGSVRVTSTYSREDNTAFIFDGESSTMKLVGNPSGPEFERLIRFWCDERKTIPGMLAALTLELLDKND
modifications: 35S-labeled Methionine and Cysteine
As for B5, the binding entry in experiment [2] is given as “binds weakly”.
